Measurements reported in PubChem BioAssay AID686937 (Drosophila RNAi Screening Center, 2013).

Purpose: 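Knock-downs that reduce output of a secreted reporter enzyme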 (primary screen)
System: Drosophila S2 cells expressing secreted horseradish peroxidase
Reagents: long dsRNA against Drosophila genes
Time to read-out: about 5.5 days (5 days dsRNA, then 12 h reporter induction)
Challenge: reporter expression induced after 5 days of dsRNA, read 12 h later; inducer not stated
Detection: 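Chemiluminescent measurement of peroxidase in the medium 12 h after reporter induction, following 5 days of dsRNA, given as a z-score per plate; higher means more secretion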
Scale: z-score: higher = more reporter secreted into medium
The deposit covers about 23,000 reagents; below is a random part of those that have a named target and a result. 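Reduced-secretion tags in replicate 1 do not always agree with the z-scores; no criterion for assigning the tags was given.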 Names joined by + are all predicted targets of the reagent. Not all columns of the deposit are shown. Not stated in the record: the amount of reagent.

LpR2 [DRSC13726]
- z-score, replicate 1: 0.71

LpR2 [DRSC13728]
- z-score, replicate 1: 0.31

LpR2 [DRSC15655]
- z-score, replicate 1: 0.27

LpR2 [DRSC15658]
- z-score, replicate 1: 0.39

Grl62c [DRSC07964]
- z-score, replicate 1: 0.27

CG11125 [DRSC06042]
- z-score, replicate 1: 0.16

Arc1 [DRSC06159]
- z-score, replicate 1: -0.71

BEAF-32 [DRSC05927]
- z-score, replicate 1: 0.28

trn [DRSC11407]
- z-score, replicate 1: 0.42

Gr61a [DRSC08358]
- z-score, replicate 1: 0.2

Fas2 [DRSC17308]
- z-score, replicate 1: -2.45
- phenotype, replicate 1: reduced secretion

Fas2 [DRSC17309]
- z-score, replicate 1: 0.19

Fas2 [DRSC18664]
- z-score, replicate 1: -0.06

CG4372 [DRSC04466]
- z-score, replicate 1: 0.11

Entries above whose gene name starts with G or g (2):
Grl62c [DRSC07964]
- z-score, replicate 1: 0.27

Gr61a [DRSC08358]
- z-score, replicate 1: 0.2

Further reagents:
PlexA [DRSC17220]
- z-score, replicate 1: 0.47

pot [DRSC19850]
- z-score, replicate 1: 0.15

Cyp6d5 [DRSC16634]
- z-score, replicate 1: 0.27

CG15711 [DRSC06582]
- z-score, replicate 1: 0.07

CG2310 [DRSC15438]
- z-score, replicate 1: 0.16

gbb [DRSC04687]
- z-score, replicate 1: 0.36

CG33342 [DRSC13662]
- z-score, replicate 1: 0.51

CG42496 + Ppcdc [DRSC03886]
- z-score, replicate 1: -0.53

CG8852 [DRSC00719]
- z-score, replicate 1: 0.15

NAT1 [DRSC06854]
- z-score, replicate 1: 0.57

HipHop [DRSC10734]
- z-score, replicate 1: 0.23

CG18518 [DRSC01509]
- z-score, replicate 1: -0.42

CG11162 [DRSC19391]
- z-score, replicate 1: 0.01

CG11162 [DRSC22538]
- z-score, replicate 1: -2.27
- phenotype, replicate 1: reduced secretion

CG7251 [DRSC03039]
- z-score, replicate 1: 0.22

CG31848 [DRSC01309]
- z-score, replicate 1: 0.16

UGP + PGRP-LF [DRSC10418]
- z-score, replicate 1: 0.6

CG33310 [DRSC01897]
- z-score, replicate 1: 0.42

Tsp29Fa [DRSC03232]
- z-score, replicate 1: 0.56

Prp31 [DRSC10735]
- z-score, replicate 1: -1.39

Cyp9b1 [DRSC07389]
- z-score, replicate 1: 0.36

SERCA [DRSC04600]
- z-score, replicate 1: -0.52

ms(3)K81 [DRSC14746]
- z-score, replicate 1: 0.4

shep [DRSC08748]
- z-score, replicate 1: -4.75
- phenotype, replicate 1: reduced secretion

shep [DRSC09765]
- z-score, replicate 1: 0.78

shep [DRSC09771]
- z-score, replicate 1: -0.41
